PubChem BioAssay AID652259 | Drosophila RNAi Screening Center – 2013

- Screen: 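Identify new Wingless signalling regulators in fly cells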 (primary screen)
- Cell system: Drosophila clone 8 imaginal disc epithelial cells
- Reagent: long dsRNA against Drosophila genes
- Conditions: pathway stimulated by co-transfected Wingless expression plasmid
- Measurement: 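Dual luciferase reads per well after Wingless plasmid stimulation: reporter firefly light and Renilla control light; activity is firefly divided by Renilla, a ratio not deposited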
- Direction: firefly reporter light: higher = more Wg reporter light, before normalisation; Renilla control light: higher = more transfected or surviving cells
- Rule for the call: 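a knock-down is a candidate when at least two out of four statistical tests show it departing from its plate mean; one test alone signals a weak candidate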
- Calls: active = candidate regulator (raises or lowers reporter); inactive = not a candidate
The screen tested about 22,000 reagents; shown is an unselected part of those with a known target gene and a result. Of all reagents, 233 (1.1%) got an active call. 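Light values are raw, unnormalised plate reads; the ratio scores behind the reporter calls were not deposited.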 The numbers tell different reagents against one gene apart. Names joined by + are all predicted targets of the reagent. Not stated in the record: the amount of reagent, the time to read-out, the dose of the treatment.

Gene | reagent | reporter change call, replicate 1 | firefly reporter light, replicate 1 | firefly reporter light, replicate 2 | Renilla control light, replicate 1 | Renilla control light, replicate 2 | Outcome
SIDL | 1 | – | 5392 | – | 1920 | – | inactive
Polr3B | 1 | – | 9049 | – | 2690 | – | inactive
CG10126 | 1 | – | 8205 | – | 3643 | – | inactive
IntS10 | 1 | – | 5686 | – | 2593 | – | inactive
Cpr49Af | 1 | – | 6753 | – | 2740 | – | inactive
na | 1 | – | 19552 | – | 12724 | – | inactive
how | 1 | – | 34675 | – | 6970 | – | inactive
Cec-Psi1 | 1 | – | 6.11e5 | 6.59e5 | 2.27e5 | 2.49e5 | inactive
Srx | 1 | – | 21149 | – | 9885 | – | inactive
CG15483 | 1 | – | 1784 | 6315 | 1141 | 3574 | inactive
mei-217 + mei-218 | 1 | – | 20445 | – | 10922 | – | inactive
Spec2 (retired record) | 1 | – | 7302 | – | 2224 | – | inactive
Spec2 (retired record) | 2 | – | 5.95e5 | 4.79e5 | 2.18e5 | 508 | inactive
Cpr49Ah | 1 | – | 4700 | – | 2352 | – | inactive
ND-39 | 1 | – | 5344 | – | 2290 | – | inactive
dnk | 1 | – | 11920 | – | 3386 | – | inactive
eEF2 | 1 | – | 2134 | 5244 | 552 | 2032 | inactive
Amun | 1 | Wg reporter activity lowered | 15749 | – | 9760 | – | inactive
CG12589 | 1 | – | 23216 | – | 4992 | – | inactive
CG5139 | 1 | – | 3872 | 9896 | 1624 | 4084 | inactive
schuy | 1 | – | 15421 | – | 4769 | – | inactive
nopo | 1 | – | 13451 | – | 4573 | – | inactive
Pus1 | 1 | – | 19755 | – | 5287 | – | inactive
CG6628 | 1 | – | 4509 | – | 1688 | – | inactive
Cph | 1 | – | 5424 | – | 1217 | – | inactive
Cph | 2 | – | 19064 | – | 6521 | – | inactive
RpL27 | 1 | – | 11552 | – | 8041 | – | inactive
IKKbeta | 1 | – | 1728 | 6173 | 642 | 2089 | inactive
B-H2 | 1 | Wg reporter activity raised | 25040 | – | 2486 | – | active
CG13711 | 1 | Wg reporter activity lowered | 560 | 3050 | 848 | 2261 | inactive
whd | 1 | – | 9707 | – | 2833 | – | inactive
Gr28a | 1 | – | 2220 | 5449 | 653 | 2141 | inactive
CG15876 | 1 | – | 848 | 5869 | 769 | 2540 | inactive
CG13794 | 1 | – | 2571 | 6610 | 672 | 2992 | inactive
Amph | 1 | – | 9408 | – | 2437 | – | inactive
CG31802 | 1 | – | 3179 | 10049 | 979 | 3680 | inactive
fok | 1 | – | 2042 | 6065 | 865 | 3380 | inactive
CG12576 | 1 | – | 31955 | – | 9828 | – | inactive
elav | 1 | – | 2458 | 5033 | 966 | 1971 | inactive
CG15047 | 1 | – | 36035 | – | 19220 | – | inactive
CG15047 | 2 | – | 3.81e5 | 4.17e5 | 1.77e5 | 1.46e5 | inactive
rst | 1 | – | 2893 | – | 1107 | – | inactive
rst | 2 | – | 21056 | – | 12678 | – | inactive
CG4036 | 1 | – | 3796 | – | 2737 | – | inactive
CG12491 + CG34105 | 1 | – | 23808 | – | 8347 | – | inactive
CG12491 + CG34105 | 2 | – | 3651 | 10656 | 768 | 2598 | inactive
Cpr49Ac | 1 | – | 13648 | – | 1990 | – | inactive
lncRNA:CR33218 | 1 | – | 6.59e5 | 5.81e5 | 3.19e5 | 2.65e5 | inactive
Eig71Ed | 1 | – | 8193 | – | 3723 | – | inactive
CG32811 | 1 | – | 6.74e5 | 6.55e5 | 2.65e5 | 1.41e5 | inactive
CG14630 | 1 | – | 17595 | – | 12649 | – | inactive
CG14630 | 2 | – | 11851 | – | 12662 | – | inactive
Non3 | 1 | – | 7253 | 6966 | 1408 | 2328 | inactive
CG9331 | 1 | – | 15280 | – | 5052 | – | inactive
CG15646 | 1 | – | 15491 | – | 7171 | – | inactive
CG32564 | 1 | – | 19776 | – | 9336 | – | inactive
RhoGAP16F | 1 | – | 1824 | 4917 | 784 | 1933 | inactive
CG32459 | 1 | – | 10665 | – | 4249 | – | inactive
Fem-1 | 1 | – | 5978 | – | 2017 | – | inactive
Epac | 1 | – | 3915 | – | 1024 | – | inactive
Epac | 2 | – | 13532 | – | 2949 | – | inactive
Epac | 3 | – | 1816 | 8928 | 421 | 2336 | inactive
Cdc7 | 1 | – | 30809 | 7.18e5 | 16738 | 2.37e5 | inactive
Cdc7 | 2 | – | 19756 | – | 11939 | – | inactive
Cdc7 | 3 | – | 9.80e5 | 9.52e5 | 4.33e5 | 5.09e5 | inactive
CG16957 | 1 | – | 2918 | 5149 | 1248 | 2327 | inactive
CG17078 | 1 | – | 2341 | 5608 | 893 | 2288 | inactive
CG10137 | 1 | – | 7300 | – | 1869 | – | inactive
CG10137 | 2 | – | 2601 | 3920 | 464 | 1931 | inactive
CG15468 | 1 | – | 14658 | – | 5829 | – | inactive
CG17636 | 1 | – | 16277 | – | 8920 | – | inactive
CG15126 | 1 | – | 8817 | – | 2936 | – | inactive
lmgA + lmgB | 1 | – | 2701 | 6373 | 940 | 2541 | inactive

6 entries already listed, arranged by “Renilla control light, replicate 1”, lowest first:
Gene | reagent | reporter change call, replicate 1 | firefly reporter light, replicate 1 | firefly reporter light, replicate 2 | Renilla control light, replicate 1 | Renilla control light, replicate 2 | Outcome
CG12491 + CG34105 | 2 | – | 3651 | 10656 | 768 | 2598 | inactive
Cpr49Ac | 1 | – | 13648 | – | 1990 | – | inactive
Eig71Ed | 1 | – | 8193 | – | 3723 | – | inactive
CG12491 + CG34105 | 1 | – | 23808 | – | 8347 | – | inactive
CG32811 | 1 | – | 6.74e5 | 6.55e5 | 2.65e5 | 1.41e5 | inactive
lncRNA:CR33218 | 1 | – | 6.59e5 | 5.81e5 | 3.19e5 | 2.65e5 | inactive
